Experimental data published in publication PMC4102417 (PLoS Neglected Tropical Diseases, 2014).

System: T. cruzi (Tulahuen strain)
Assay: microbe, parasite or virus in culture
Type: cell-based
Conditions: Trypanosoma cruzi, Fibroblast, read-out: T. cruzi EC50 (nM)
Description: Compounds were tested against T. cruzi (Tulahuen strain) stably expressing the beta-galactosidase gene as previously described. […] Fibroblasts were plated at a density of 2×10^3 per well in 96 well tissue culture plates. After 24 hours of incubation, 1×10^4 trypomastigotes/well were added to the fibroblasts and incubated for 4 hours before addition of the test compounds from the Spectrum Collection (10 µM final concentration). Cultures were incubated at 37°C for 5 days, then developed with chlorophenol red β-D-galactopyranoside as previously described. The percent inhibition is reported with standard deviation of the mean. […] Z-prime values were calculated for each 96-well plate based on positive (4 wells) and negative controls (4 wells).

Q: For O=C(CCCN1CCC2(CC1)C(=O)NCN2c1ccccc1)c1ccc(F)cc1 [SPIPERONE, 8-[4-(4-fluorophenyl)-4-oxobutyl]-1-phenyl-1,3,8-triazaspiro[4.5]decan-4-one], which EC50 is on record?
A: 7900 nM
